System: IL-8 release of NHEK
Test: IL-8 release of NHEK stimulated by PMA (ELISA), anti-inflammatory
Format: cell-based, human
Settings: 10^−9M
Description: The matrix metalloproteinase-1 (MMP-1) assay using a specific ELISA kit was used to evaluate anti-aging properties. The migration/proliferation of NHEK using kinetic image analysis of the wound recovery was used to evaluate cell renewal properties. The IL-8 release on NHEK stimulated by PMA using a specific ELISA kit was used to evaluate anti-inflammatory properties.

For CN[C@@H]1C[C@H]2O[C@@](C)([C@@H]1OC)n1c3ccccc3c3c4c(c5c6ccccc6n2c5c31)C(=O)NC4 [Staurosporine], which “IL-8 % Inhibition” value is on record?
Its value is 48%.

What about the inhibition at 0.001 µM (Homo sapiens, NHEK) of the same molecule?
The inhibition at 0.001 µM was 50%.

From US11077159B2, “Compositions from halophyte plants and methods of use thereof” (KHALIFA UNIVERSITY OF SCIENCE AND TECHNOLOGY, priority 2017, dated 2021)
